Amino acid sequences for entries named in this document (tags omitted). Chains listed by the source or under a name are the forms on record and can include a tag or linker. Residues count along the entry.
UniProt P29597, 575-869 with tags or gaps: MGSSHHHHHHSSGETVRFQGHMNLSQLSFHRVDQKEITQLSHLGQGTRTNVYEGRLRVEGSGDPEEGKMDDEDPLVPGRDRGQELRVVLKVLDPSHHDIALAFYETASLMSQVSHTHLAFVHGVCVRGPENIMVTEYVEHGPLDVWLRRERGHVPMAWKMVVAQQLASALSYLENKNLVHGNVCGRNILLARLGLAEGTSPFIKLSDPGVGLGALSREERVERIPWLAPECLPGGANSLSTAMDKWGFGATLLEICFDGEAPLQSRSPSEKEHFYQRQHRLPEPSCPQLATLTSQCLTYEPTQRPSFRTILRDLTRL

In US10479793B2, “Imidazopyridazine compounds useful as modulators of IL-12, IL-23 and/or IFN alpha responses” (BRISTOL-MYERS SQUIBB COMPANY, priority 2015, dated 2019):

Biological target: recombinantly expressed His-tagged protein corresponding to amino acids 575-869 of human Tyk2 (Homo sapiens, UniProt P29597)
Assay: Probe displacement assay (scintillation proximity, tritiated probe)
Format: binding
Details: read-out: Probe Displacement (EC50); His-tagged Tyk2 (575-869) 2.5 nM, 40 nM radiolabeled probe, 30 minutes at room temperature

**Q.** How did the EC50 turn out when `CNc1cc(Nc2cccnc2C(=O)NCC(C)(C)C)nn2c(C(=O)NC3CC3)cnc12` was run?
**A.** Its EC50 is 10 nM.

The match of structure and compound is tentative.
